± gives the standard deviation of the averaged measurements. Only a part is listed here, and it is no random draw. Most entries show no effect beyond the scatter of the controls.
compound: Nc1ncnc2c1ncn2[C@@H]1O[C@H](COP(=O)(O)OP(=O)(O)OP(=O)(O)O)[C@@H](O)[C@H]1O [adenosine triphosphate]; test: NP40-soluble protein abundance relative to vehicle (solubility fold change) (ratio); higher = more soluble protein in presence of ATP; details: concentration: 0.1mM
In short: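 Values are fold changes against the detergent-processed vehicle, based on vsn-normalised intensities. Jurkat crude lysate was treated at eight concentrations from 0.1 to 10 mM (10 min at room temperature, then 3 min at 37 °C), solubilised with 0.8% NP40 and benzonase, ultracentrifuged and analysed by TMT-labelled LC-MS/MS over three independent experiments.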

Protein sequences, listed by entry. Tags and fused reporters are not part of them. Lines headed by an entry give the natural chain unless they say otherwise; changes in a name come on top.
UniProt P07199: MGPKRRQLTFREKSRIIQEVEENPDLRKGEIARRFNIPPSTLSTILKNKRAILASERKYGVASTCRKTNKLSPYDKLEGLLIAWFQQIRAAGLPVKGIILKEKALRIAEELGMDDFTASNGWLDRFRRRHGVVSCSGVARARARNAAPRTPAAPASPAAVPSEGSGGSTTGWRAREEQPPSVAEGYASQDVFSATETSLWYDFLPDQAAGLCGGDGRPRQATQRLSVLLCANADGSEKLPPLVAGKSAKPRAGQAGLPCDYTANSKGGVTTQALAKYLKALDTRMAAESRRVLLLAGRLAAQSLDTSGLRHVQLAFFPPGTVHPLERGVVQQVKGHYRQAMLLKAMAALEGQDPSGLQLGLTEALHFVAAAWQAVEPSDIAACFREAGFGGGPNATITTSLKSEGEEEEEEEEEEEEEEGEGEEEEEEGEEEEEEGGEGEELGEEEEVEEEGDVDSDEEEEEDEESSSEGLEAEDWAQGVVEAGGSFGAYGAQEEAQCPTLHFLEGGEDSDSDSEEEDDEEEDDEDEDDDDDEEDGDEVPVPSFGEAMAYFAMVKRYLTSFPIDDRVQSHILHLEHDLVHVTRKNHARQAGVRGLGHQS
UniProt P04035: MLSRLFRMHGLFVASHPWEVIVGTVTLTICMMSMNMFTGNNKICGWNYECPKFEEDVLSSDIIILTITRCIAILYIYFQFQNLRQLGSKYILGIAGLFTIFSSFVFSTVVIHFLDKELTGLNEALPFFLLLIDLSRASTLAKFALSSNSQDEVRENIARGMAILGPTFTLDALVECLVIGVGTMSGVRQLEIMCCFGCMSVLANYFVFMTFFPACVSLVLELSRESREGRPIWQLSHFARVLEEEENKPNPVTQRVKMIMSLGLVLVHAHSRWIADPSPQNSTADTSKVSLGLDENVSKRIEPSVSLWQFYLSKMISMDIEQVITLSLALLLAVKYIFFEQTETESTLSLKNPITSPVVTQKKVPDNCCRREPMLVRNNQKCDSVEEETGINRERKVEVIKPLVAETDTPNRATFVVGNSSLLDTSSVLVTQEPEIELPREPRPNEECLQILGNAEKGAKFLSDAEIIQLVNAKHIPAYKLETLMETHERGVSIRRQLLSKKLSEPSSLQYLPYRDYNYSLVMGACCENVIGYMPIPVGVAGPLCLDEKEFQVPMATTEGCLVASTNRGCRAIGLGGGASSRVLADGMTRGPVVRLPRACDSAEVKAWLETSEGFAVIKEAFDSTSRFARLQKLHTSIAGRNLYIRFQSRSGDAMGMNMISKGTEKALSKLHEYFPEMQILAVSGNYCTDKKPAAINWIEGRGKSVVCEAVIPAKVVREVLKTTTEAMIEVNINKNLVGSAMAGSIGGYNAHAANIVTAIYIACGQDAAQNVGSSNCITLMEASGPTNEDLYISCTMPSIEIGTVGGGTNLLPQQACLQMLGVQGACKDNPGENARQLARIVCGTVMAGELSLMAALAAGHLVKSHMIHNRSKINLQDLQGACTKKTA
UniProt P11172: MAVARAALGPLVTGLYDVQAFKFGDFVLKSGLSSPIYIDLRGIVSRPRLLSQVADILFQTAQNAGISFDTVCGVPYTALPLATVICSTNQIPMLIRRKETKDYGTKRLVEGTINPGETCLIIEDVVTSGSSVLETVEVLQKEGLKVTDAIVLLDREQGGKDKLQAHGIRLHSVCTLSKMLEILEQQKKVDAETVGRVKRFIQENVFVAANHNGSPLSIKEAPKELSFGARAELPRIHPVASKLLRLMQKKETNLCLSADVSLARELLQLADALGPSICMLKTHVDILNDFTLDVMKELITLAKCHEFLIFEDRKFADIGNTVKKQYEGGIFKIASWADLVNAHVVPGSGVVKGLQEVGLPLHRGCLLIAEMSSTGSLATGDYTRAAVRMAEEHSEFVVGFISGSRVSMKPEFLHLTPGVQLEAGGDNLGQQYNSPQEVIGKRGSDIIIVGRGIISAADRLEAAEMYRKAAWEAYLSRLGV
UniProt P12074, whole entry: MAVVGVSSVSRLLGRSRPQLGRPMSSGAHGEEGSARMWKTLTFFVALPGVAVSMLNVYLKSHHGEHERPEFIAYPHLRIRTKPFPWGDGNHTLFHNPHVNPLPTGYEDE
UniProt P10914: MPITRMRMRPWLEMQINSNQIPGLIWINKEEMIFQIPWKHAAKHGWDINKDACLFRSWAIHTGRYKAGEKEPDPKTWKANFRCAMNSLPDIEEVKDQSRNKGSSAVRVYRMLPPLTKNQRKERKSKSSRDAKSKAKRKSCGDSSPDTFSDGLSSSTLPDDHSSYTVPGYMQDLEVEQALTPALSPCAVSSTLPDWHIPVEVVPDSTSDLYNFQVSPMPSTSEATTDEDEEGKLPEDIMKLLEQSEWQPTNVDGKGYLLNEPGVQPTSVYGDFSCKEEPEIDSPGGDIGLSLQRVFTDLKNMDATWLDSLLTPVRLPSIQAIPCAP
UniProt P09972: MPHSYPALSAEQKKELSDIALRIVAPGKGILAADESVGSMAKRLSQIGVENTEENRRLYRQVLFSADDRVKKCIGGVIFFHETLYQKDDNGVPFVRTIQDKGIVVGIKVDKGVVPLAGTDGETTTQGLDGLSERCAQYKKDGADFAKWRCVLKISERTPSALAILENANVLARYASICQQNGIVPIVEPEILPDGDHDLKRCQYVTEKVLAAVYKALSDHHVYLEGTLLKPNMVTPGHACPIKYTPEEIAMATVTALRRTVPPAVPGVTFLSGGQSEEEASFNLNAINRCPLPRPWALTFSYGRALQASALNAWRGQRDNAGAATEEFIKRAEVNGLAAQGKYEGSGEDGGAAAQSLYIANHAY
UniProt O95825: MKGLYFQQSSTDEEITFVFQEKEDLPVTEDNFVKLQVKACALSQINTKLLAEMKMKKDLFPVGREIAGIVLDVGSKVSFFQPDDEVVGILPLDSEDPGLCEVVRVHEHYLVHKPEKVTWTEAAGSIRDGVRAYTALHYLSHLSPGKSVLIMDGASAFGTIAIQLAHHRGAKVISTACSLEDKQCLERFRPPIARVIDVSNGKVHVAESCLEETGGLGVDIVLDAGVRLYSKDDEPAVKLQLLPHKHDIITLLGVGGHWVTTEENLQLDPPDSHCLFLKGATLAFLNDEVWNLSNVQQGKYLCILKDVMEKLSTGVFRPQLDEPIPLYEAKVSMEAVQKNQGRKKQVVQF
UniProt O95848: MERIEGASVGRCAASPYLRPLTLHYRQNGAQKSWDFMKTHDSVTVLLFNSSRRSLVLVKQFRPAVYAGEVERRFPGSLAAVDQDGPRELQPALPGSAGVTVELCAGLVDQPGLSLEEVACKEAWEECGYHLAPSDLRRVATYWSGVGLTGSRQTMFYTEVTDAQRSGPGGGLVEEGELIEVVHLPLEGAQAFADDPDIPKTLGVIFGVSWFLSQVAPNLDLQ
UniProt P06753, whole entry: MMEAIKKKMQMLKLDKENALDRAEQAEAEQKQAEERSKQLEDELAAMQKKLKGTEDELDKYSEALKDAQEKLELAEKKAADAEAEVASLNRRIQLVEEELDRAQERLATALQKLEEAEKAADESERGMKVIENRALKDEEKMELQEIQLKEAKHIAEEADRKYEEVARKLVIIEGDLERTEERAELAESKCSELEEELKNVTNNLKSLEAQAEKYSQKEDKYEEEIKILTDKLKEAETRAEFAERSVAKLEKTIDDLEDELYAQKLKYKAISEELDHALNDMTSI
UniProt P13861, whole entry: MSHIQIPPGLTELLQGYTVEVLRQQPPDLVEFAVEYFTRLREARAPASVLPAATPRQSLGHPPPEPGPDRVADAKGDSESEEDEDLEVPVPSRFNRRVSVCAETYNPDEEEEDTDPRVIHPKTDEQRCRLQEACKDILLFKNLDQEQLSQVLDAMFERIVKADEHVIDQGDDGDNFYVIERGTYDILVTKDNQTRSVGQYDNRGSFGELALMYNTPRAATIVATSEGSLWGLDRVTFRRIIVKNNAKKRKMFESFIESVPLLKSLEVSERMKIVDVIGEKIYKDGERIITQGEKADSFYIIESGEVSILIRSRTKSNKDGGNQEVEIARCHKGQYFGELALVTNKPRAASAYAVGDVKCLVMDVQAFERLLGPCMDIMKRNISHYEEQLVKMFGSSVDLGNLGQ
UniProt P12277: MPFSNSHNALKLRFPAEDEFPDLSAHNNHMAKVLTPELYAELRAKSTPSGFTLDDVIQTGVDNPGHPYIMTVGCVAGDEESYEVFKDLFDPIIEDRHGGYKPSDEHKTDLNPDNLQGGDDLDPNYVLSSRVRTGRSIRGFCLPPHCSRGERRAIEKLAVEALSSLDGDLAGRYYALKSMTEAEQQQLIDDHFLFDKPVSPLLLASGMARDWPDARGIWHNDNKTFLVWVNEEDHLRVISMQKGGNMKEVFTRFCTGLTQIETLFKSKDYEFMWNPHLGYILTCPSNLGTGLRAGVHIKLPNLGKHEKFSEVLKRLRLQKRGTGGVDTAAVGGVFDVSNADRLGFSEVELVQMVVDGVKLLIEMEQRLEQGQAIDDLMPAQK
UniProt P14625, whole entry: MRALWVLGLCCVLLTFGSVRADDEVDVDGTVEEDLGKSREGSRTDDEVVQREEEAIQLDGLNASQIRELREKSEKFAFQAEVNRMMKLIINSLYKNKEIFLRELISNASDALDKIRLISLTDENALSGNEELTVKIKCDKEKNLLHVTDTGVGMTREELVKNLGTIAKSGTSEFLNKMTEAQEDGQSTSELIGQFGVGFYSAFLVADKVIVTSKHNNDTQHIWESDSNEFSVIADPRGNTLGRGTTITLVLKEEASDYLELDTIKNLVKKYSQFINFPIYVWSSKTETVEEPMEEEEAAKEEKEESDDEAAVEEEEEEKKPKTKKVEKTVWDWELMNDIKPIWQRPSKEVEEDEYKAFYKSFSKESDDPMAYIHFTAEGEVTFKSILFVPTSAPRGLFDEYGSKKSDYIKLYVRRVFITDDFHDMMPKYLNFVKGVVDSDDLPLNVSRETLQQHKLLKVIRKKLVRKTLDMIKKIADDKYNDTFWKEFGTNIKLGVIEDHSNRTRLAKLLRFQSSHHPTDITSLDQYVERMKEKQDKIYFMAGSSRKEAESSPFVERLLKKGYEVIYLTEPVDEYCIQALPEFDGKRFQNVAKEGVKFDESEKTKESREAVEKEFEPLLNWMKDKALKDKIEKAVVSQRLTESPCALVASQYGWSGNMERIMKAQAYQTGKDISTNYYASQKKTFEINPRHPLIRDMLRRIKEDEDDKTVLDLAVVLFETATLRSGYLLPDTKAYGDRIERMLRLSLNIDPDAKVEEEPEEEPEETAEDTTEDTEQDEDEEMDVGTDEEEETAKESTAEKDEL
UniProt P00167, whole entry: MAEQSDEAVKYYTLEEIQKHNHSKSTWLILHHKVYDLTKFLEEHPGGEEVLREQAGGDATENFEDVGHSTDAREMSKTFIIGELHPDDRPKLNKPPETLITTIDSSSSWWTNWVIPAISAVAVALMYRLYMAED
UniProt P01137, whole entry: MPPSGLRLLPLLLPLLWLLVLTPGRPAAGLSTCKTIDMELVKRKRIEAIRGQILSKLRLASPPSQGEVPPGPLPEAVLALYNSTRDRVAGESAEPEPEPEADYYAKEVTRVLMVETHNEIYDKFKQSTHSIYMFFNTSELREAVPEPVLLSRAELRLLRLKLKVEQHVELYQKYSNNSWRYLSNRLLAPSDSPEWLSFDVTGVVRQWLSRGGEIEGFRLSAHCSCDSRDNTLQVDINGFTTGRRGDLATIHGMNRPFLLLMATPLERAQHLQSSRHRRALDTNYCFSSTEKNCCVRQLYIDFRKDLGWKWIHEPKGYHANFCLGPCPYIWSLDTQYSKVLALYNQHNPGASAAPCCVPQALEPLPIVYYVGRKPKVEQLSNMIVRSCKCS
UniProt P14921: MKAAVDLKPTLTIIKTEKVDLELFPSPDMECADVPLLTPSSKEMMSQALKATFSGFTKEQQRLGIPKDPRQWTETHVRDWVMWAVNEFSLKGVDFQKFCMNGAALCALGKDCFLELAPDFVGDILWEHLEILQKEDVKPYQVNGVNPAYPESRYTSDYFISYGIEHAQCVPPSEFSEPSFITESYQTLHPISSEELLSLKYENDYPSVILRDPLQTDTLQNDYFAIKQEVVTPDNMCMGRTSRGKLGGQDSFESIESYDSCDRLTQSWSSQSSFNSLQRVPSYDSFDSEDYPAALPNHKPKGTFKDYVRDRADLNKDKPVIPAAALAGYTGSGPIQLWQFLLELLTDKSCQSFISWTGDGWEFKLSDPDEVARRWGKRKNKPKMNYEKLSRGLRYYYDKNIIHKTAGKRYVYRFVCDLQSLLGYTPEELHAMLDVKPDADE
UniProt P00966: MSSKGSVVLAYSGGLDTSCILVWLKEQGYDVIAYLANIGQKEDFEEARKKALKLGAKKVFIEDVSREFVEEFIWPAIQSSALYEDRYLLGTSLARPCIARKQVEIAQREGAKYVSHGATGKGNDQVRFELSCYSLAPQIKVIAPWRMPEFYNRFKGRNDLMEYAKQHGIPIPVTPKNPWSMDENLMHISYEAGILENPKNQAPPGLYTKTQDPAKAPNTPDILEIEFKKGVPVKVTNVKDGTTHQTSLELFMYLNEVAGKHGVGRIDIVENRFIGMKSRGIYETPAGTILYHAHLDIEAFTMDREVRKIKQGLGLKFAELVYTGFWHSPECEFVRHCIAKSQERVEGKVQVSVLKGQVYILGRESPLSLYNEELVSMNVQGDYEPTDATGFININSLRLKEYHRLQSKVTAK

Target	NP40-soluble protein abundance
UniProt P06126	0.993 ± 0.031
CENPB (UniProt P07199)	0.998 ± 0.058
UniProt P10586 and related entries	0.981 ± 0.049
UniProt P04035 and related entries	1.03 ± 0.082
UMPS (UniProt P11172)	1.06 ± 0.08
CYC1 (UniProt P08574)	1.01 ± 0.031
RPN1 (UniProt P04843)	1.02 ± 0.038
UniProt P15923-2|X6REB3 and related entries	0.955 ± 0.04
COX6A1 (UniProt P12074)	0.855 ± 0.15

Some of the entries so far, field by field:
UniProt P04035 and related entries
  NP40-soluble protein abundance: 1.03 ± 0.082
CYC1 (UniProt P08574)
  NP40-soluble protein abundance: 1.01 ± 0.031

same assay, conditions: concentration: 0.5mM

Target	NP40-soluble protein abundance
UniProt P14735 and related entries	1.04 ± 0.081
UniProt P10914	0.9397 ± 0.0037
ALDOC (UniProt P09972)	1.04 ± 0.07
CRYZL1 (UniProt O95825)	1.05 ± 0.066
NUDT14 (UniProt O95848)	1 ± 0.13
UniProt P06753-2|P06753-3|P06753-5|P06753-6|J3KN67	0.747 ± 0.26
UniProt P07954-2	0.992 ± 0.047
HEXB (UniProt P07686)	0.972 ± 0.02
PRKAR2A (UniProt P13861)	1 ± 0.041
CKB (UniProt P12277)	0.921 ± 0.054
HSP90B1 (UniProt P14625)	1.03 ± 0.051
CYB5A (UniProt P00167)	0.868 ± 0.085
TGFB1 (UniProt P01137)	0.956 ± 0.057
UniProt P16083 and related entries	1.01 ± 0.03
ETS1 (UniProt P14921)	0.914 ± 0.024
UniProt P04053 and related entries	1.049 ± 0.0091
ASS1 (UniProt P00966)	1.02 ± 0.06
RAP2A (UniProt P10114)	1.11 ± 0.13
ACYP2 (UniProt P14621)	0.933 ± 0.044

Reference: the supplement of paper PMC6411743
